The experiment concerns the target α4β1 integrin (Homo sapiens, UniProt P05556+P13612). In words: Adhesion of calcein-labeled Ramos cells to CS1 (fibronectin) peptide conjugated ovalbumin. Particulars: Table 7; Ramos cell adhesion to CS1 conjugated ovalbumin; dose required to give 50% inhibition. The method, then: A procedure in which a 26-amino acid peptide containing the CS1 sequence of fibronectin with an N-terminal Cys ([…]) was coupled to maleimide activated ovalbumin was used to determine the efficacy of the compounds synthesized. Bovine serum albumin (BSA) and CS1 conjugated ovalbumin were coated onto 96-well polystyrene plates at 0.5 μg/ml in TBS (50 mM TRIS, pH 7.5; 150 mM NaCl) at 4° C. for 16 hours. The plates were washed three times with TBS and blocked with TBS containing 3% BSA at room temperature for 4 hours. Blocked plates were washed three times in binding buffer (TBS; 1 mM MgCl2; 1 mM CaCl2; 1 mM MnCl2) prior to assay. Ramos cells fluorescently labeled with calcein AM were resuspended in binding buffer (10^7 cells/ml) and diluted 1:2 with same buffer with or without compound. 100 μM of compound was added. The cells were added immediately to the wells (2.5×10^5 cells/well) and incubated for 30 minutes at 37° C. Following three washes with binding buffer, adherent cells were lysed and quantitated using a fluorometer. IC50 is defined as the dose required to give 50% inhibition, measured in μM for Tables 2 and 4. The lower the IC50 value and the greater the percentage of inhibition, the more efficient the compound is at prevention of cell adhesion.

Sequences of proteins named here, by UniProt entry; tags and fusion partners are left off. Residues count along the entry.
UniProt P05556, 21-798 limits assumed: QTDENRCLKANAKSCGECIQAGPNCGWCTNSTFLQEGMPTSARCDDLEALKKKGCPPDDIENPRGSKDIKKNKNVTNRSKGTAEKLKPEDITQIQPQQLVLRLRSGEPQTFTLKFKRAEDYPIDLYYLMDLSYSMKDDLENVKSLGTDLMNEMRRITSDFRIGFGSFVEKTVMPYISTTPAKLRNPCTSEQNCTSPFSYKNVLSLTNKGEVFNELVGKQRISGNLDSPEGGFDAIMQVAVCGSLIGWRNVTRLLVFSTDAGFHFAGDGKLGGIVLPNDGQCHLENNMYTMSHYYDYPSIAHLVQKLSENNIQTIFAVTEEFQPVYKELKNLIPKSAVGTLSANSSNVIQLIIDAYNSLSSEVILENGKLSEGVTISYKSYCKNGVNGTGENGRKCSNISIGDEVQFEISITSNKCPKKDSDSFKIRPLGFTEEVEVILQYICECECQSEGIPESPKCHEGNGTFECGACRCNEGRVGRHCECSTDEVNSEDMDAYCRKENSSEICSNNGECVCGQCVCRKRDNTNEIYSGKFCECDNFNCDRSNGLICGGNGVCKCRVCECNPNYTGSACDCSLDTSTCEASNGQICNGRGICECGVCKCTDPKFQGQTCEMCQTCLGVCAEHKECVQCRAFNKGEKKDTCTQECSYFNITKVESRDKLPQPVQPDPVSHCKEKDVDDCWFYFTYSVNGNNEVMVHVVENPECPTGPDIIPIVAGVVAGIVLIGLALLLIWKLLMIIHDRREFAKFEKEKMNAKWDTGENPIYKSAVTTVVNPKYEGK
UniProt P13612, 34-1032 limits assumed: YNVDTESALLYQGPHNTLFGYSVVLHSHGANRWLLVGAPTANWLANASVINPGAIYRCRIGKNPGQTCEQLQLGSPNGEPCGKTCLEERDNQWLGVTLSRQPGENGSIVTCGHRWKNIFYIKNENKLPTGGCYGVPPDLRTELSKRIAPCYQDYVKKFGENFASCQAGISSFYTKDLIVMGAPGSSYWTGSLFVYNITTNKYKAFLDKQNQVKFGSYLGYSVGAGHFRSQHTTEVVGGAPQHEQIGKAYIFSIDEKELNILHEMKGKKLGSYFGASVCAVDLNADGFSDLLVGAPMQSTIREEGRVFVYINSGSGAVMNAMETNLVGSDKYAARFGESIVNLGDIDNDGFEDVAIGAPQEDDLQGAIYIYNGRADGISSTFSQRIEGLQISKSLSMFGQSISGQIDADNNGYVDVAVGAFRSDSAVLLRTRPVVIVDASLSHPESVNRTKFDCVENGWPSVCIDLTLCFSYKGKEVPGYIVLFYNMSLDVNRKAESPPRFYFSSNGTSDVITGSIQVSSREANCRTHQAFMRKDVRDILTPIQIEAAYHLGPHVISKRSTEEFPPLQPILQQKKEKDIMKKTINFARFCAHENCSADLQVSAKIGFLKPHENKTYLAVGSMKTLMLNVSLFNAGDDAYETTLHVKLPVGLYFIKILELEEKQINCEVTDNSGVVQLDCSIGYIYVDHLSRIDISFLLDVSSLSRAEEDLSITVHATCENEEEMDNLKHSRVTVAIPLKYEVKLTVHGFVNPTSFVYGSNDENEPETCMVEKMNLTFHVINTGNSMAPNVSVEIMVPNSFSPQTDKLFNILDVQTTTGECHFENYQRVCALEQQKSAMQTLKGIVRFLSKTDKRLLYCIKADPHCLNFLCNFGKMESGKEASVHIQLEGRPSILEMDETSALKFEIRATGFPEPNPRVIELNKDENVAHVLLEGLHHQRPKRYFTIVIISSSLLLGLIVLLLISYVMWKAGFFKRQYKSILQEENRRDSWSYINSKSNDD

The match of structure and compound is tentative.

On to `Cc1cccc(Cl)c1Cn1c2c(c(O)c(NC(=O)N[C@@H](CC(=O)O)c3cc(F)cc(F)c3)c1=O)CCC2`, for which the half-maximal inhibitory concentration (IC50) was 11 nM.

Source of the values: patent US6972296B2, “Carboxylic acid derivatives that inhibit the binding of integrins to their receptors” (Encysive Pharmaceuticals Inc., priority 1999, dated 2005).
